This note sets out measurements from patent US20250066490A1, “ANTI-CD70 ANTIBODIES, CONJUGATES THEREOF AND METHODS OF USING THE SAME” (ProfoundBio US Co., priority 2021, published 2025).

No constants are given. Whether binding was seen depends on the method and setting. Binding can be weak; no strength is given.

The assay has as its target cynomolgus CD70 recombinant protein (cynomolgus). As to the kind of experiment: ELISA, coated cynomolgus CD70, IgG titrated. (In an ELISA, binding on a coated surface is turned into a signal by an enzyme label.)

B1: 1F6 (Vorsetuzumab), reference antibody, full IgG (antibody, V domains shown)
VH: QVQLVQSGAEVKKPGASVKVSCKASGYTFTNYGMNWVRQAPGQGLKWMGWINTYTGEPTYADAFKGRVTMTRDTSISTAYMELSRLRSDDTAVYYCARDYGDYGMDYWGQGTTVTVSS
VL: DIVMTQSPDSLAVSLGERATINCRASKSVSTSGYSFMHWYQQKPGQPPKLLIYLASNLESGVPDRFSGSGSGTDFTLTISSLQAEDVAVYYCQHSREVPWTFGQGTKVEIK
Turning to B1, the binding entry is recorded as “binds”.
